From PMC8934665, “AT-hook peptides bind the major and minor groove of AT-rich DNA duplexes”
Construct, isoform or probe ends are uncertain for at least one entry. For some of these results: The comparison behind a weaker result is the experiment's own reference, which may not be listed here. For some of these results: At least one verdict was read from the data and is not stated in words by the source.

Sequences of proteins named here, by UniProt entry; tags and fusion partners are left off.
UniProt P52926, whole entry, looked up, tested part not stated: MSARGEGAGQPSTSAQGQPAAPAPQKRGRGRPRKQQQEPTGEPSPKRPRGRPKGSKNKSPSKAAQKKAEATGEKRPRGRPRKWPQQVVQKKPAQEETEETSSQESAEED

Legend:
[1] = target: ATHP2 (AT-hook peptide 2) (UniProt P52926); test: MS-CID-MS; details: 1:1 complex, [M+4H]4+, weakest of the three; residues 45-53; folded or branched DNA
[2] = target: ATHP1 (AT-hook peptide 1) (UniProt P52926); test: native IMS-MS; details: 1:1 and 2:1 complexes; residues 26-34; folded or branched DNA
[3] = target: ATHP2 (AT-hook peptide 2) (UniProt P52926); test: native IMS-MS; details: 1:1 and 2:1 complexes; residues 45-53; folded or branched DNA
[4] = target: ATHP3 (AT-hook peptide 3) (UniProt P52926); test: native IMS-MS; details: 1:1 and 2:1 complexes; residues 74-83; folded or branched DNA

GGATATTGCCCCCGCAATATCC [FL876]
binding result [1]: binds more weakly

GGATATTGCCTTCGCAATATCC [FL876T2]
binding result [2]: binds
binding result [3]: binds
binding result [4]: binds

GGATATTGCCTCCGCAATATCC [FL876T1]
binding result [2]: binds
binding result [3]: binds
binding result [4]: binds
